# Source: PubChem BioAssay AID1259254 (NCATS, 2017)
# Test: 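Finding genes that stop cells copying their DNA twice in one cycle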 (primary screen)
# System: human HCT116 colorectal cancer cells
# Reagent: single siRNA against human genes
# Time to read-out: 3 days
# Detection: 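Nuclei stained with Hoechst and imaged; cell-cycle phase assigned by DNA content; G2 share scaled per plate, non-targeting siRNA 0%, GMNN siRNA 100%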
# Scale: G2 robust z-score: higher = more G2 cells, more excess DNA replication
# Hit rule: 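Active siRNAs have a G2 robust z of 5 or more median absolute deviations over the median, which in these data means about 38% or higher of GMNN control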
# Shown is an unselected part of about 59,000 reagents tested. About 1,550 of all reagents (2.6%) count as active. 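G2 share is only a proxy for re-replication; each gene was hit by three separate siRNAs, and active genes were retested.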 The numbers tell different reagents against one gene apart. Not all columns of the deposit are shown. Reagent sequences are not shown. The record does not give: the amount of reagent.
G2 robust z-score,call,gene,reagent no.
-0.243,inactive,AZU1 (azurocidin 1),1
1.16,inactive,AZU1 (azurocidin 1),2
-0.58,inactive,AZU1 (azurocidin 1),3
0.358,inactive,HSD17B6 (hydroxysteroid 17-beta dehydrogenase 6),1
5.24,active,HSD17B6 (hydroxysteroid 17-beta dehydrogenase 6),2
3.01,inactive,HSD17B6 (hydroxysteroid 17-beta dehydrogenase 6),3
0.241,inactive,"NBPF7P (NBPF member 7, pseudogene)",1
2.75,inactive,"NBPF7P (NBPF member 7, pseudogene)",2
2.13,inactive,"NBPF7P (NBPF member 7, pseudogene)",3
1.46,inactive,CDK5 (cyclin dependent kinase 5),1
1.41,inactive,CDK5 (cyclin dependent kinase 5),2
-0.605,inactive,CDK5 (cyclin dependent kinase 5),3
-0.541,inactive,SCAF4 (SR-related CTD associated factor 4),1
-0.317,inactive,SCAF4 (SR-related CTD associated factor 4),2
0.396,inactive,SCAF4 (SR-related CTD associated factor 4),3
-0.746,inactive,PELI3 (pellino E3 ubiquitin protein ligase family member 3),1
1.24,inactive,PELI3 (pellino E3 ubiquitin protein ligase family member 3),2
0.0891,inactive,PELI3 (pellino E3 ubiquitin protein ligase family member 3),3
0.092,inactive,MCOLN2 (mucolipin TRP cation channel 2),1
-0.478,inactive,MCOLN2 (mucolipin TRP cation channel 2),2
-0.955,inactive,MCOLN2 (mucolipin TRP cation channel 2),3
3.5,inactive,SLC7A11,1
-0.319,inactive,SLC7A11,2
-1.12,inactive,SLC7A11,3
-1.19,inactive,SYNRG (synergin gamma),1
2.77,inactive,SYNRG (synergin gamma),2
-0.18,inactive,SYNRG (synergin gamma),3
-0.0394,inactive,DPPA4 (developmental pluripotency associated 4),1
0.0106,inactive,DPPA4 (developmental pluripotency associated 4),2
-0.769,inactive,DPPA4 (developmental pluripotency associated 4),3
-0.489,inactive,SLC44A5,1
2.49,inactive,SLC44A5,2
-0.416,inactive,SLC44A5,3
6.86,active,RPL9 (ribosomal protein L9),1
0.0905,inactive,RPL9 (ribosomal protein L9),2
-0.385,inactive,RPL9 (ribosomal protein L9),3
0.034,inactive,PLK2 (polo like kinase 2),1
-1.03,inactive,PLK2 (polo like kinase 2),2
0.147,inactive,PLK2 (polo like kinase 2),3
-0.567,inactive,DCAF12 (DDB1 and CUL4 associated factor 12),1
-0.262,inactive,DCAF12 (DDB1 and CUL4 associated factor 12),2
0.208,inactive,DCAF12 (DDB1 and CUL4 associated factor 12),3
2.2,inactive,AHSP (alpha hemoglobin stabilizing protein),1
-0.885,inactive,AHSP (alpha hemoglobin stabilizing protein),2
0.288,inactive,AHSP (alpha hemoglobin stabilizing protein),3
5.77,active,MASP2 (MBL associated serine protease 2),1
-1.18,inactive,MASP2 (MBL associated serine protease 2),2
-0.736,inactive,MASP2 (MBL associated serine protease 2),3
0.251,inactive,BIRC8 (baculoviral IAP repeat containing 8),1
-1.07,inactive,BIRC8 (baculoviral IAP repeat containing 8),2
-0.116,inactive,BIRC8 (baculoviral IAP repeat containing 8),3
-0.478,inactive,LOC284912,1
-0.025,inactive,LOC284912,2
-0.857,inactive,LOC284912,3
0.66,inactive,NOP14 (NOP14 nucleolar protein),1
1.56,inactive,NOP14 (NOP14 nucleolar protein),2
1.84,inactive,NOP14 (NOP14 nucleolar protein),3
3.92,inactive,"ABCA15P (ATP binding cassette subfamily A member 15, pseudogene)",1
1.93,inactive,"ABCA15P (ATP binding cassette subfamily A member 15, pseudogene)",2
-0.566,inactive,"ABCA15P (ATP binding cassette subfamily A member 15, pseudogene)",3
-0.579,inactive,LRRTM1 (leucine rich repeat transmembrane neuronal 1),1
0.293,inactive,LRRTM1 (leucine rich repeat transmembrane neuronal 1),2
-0.0338,inactive,LRRTM1 (leucine rich repeat transmembrane neuronal 1),3
1.74,inactive,TTC7A (tetratricopeptide repeat domain 7A),1
3.88,inactive,TTC7A (tetratricopeptide repeat domain 7A),2
-0.257,inactive,TTC7A (tetratricopeptide repeat domain 7A),3
-0.453,inactive,ANKFY1 (ankyrin repeat and FYVE domain containing 1),1
0.0709,inactive,ANKFY1 (ankyrin repeat and FYVE domain containing 1),2
0.368,inactive,ANKFY1 (ankyrin repeat and FYVE domain containing 1),3

Hits, among the entries above:
G2 robust z-score,call,gene,reagent no.
5.24,active,HSD17B6 (hydroxysteroid 17-beta dehydrogenase 6),2
6.86,active,RPL9 (ribosomal protein L9),1
5.77,active,MASP2 (MBL associated serine protease 2),1
